{"source": "patent US20220339127A1", "about": "“DRUGGABLE TARGET TO TREAT RETINAL DEGENERATION” (The United States of America,as represented by the …, priority 2019, published 2022)", "key": {"iRPE cells": {"tested_on": "iRPE cells", "test": "Proteotoxic high throughput screen (LOPAC) and follow up screen: survival of A23187 treated iRPE", "assay_type": "cell-based, human", "details": "seven-point dose curve; A23187 2.5, 5, 10 μM; two iRPE samples", "description": "10 μM concentration of A23187 was selected for the drug screening, because it provided a bigger margin for cell death rescue. […] Drug treatment along with the stressor, 10 μM A23187 were added on to iRPE cells matured in 384-well plates and cell death was scored 48 hours later by ATP release using the CellTitrGlo assay.\nTo distinguish false positives from the real signal, a follow up screen on all of the 45 drugs using iRPE derived from two different iPSC lines was performed. The follow up screen was performed at three different A23187 concentrations (2.5, 5, 10 μM) and with seven different concentrations of drugs ranging from 10 nM-1 mM (FIG. 13D-F). […] Overall, the HTS screen provided two drugs for testing in the in vitro AMD model."}, "ATG5": {"tested_on": "ATG5", "test": "ATG5 immunostaining in CC-HS treated iRPE", "assay_type": "cell-based, human", "details": "co-treatment with CC-HS"}}, "note": "Entries after “also recorded” stand apart in the source; their conditions may differ.", "data": [{"molecule": "Nc1nc2ccc(OC(F)(F)F)cc2s1", "note": "[riluzole]", "values": [{"measurement": "cytoprotective activity in follow up screen", "setting": "iRPE cells", "value": "reproducible cell survival; also recorded: linear response the seven-point dose curve and reproducibility between two different iRPE samples"}, {"measurement": "reduced expression of autophagy protein, ATG5", "setting": "ATG5", "value": "does not lead to"}]}]}
